Counter-ions that a name gives are not always drawn. The list shows a part of the results. The calls rarely recur for the same compound in another form.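 Kinases were expressed as nanoluciferase fusions in K562 cells and luminescence was read every 4 h between 2 and 18 h as percent of control, DMSO set to 100% and a positive control to 0%. A time point counts as decreased when the signal drops significantly (2 sigma). The hit call is the authors' own, does not follow from the count of time points alone, and its rule is not shown.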
Target: ALK (UniProt Q9UM73)
Assay: number of time points (of 5) at which kinase-Nluc abundance scored as decreased, DMSO-normalised (count); higher = more persistent destabilization
Details: K562; 2-18 h

By UniProt entry, the sequences of proteins in these tests, tags left out. Where a name states a change or a piece, a line headed by the entry shows the natural chain unless it says otherwise.
UniProt Q9UM73: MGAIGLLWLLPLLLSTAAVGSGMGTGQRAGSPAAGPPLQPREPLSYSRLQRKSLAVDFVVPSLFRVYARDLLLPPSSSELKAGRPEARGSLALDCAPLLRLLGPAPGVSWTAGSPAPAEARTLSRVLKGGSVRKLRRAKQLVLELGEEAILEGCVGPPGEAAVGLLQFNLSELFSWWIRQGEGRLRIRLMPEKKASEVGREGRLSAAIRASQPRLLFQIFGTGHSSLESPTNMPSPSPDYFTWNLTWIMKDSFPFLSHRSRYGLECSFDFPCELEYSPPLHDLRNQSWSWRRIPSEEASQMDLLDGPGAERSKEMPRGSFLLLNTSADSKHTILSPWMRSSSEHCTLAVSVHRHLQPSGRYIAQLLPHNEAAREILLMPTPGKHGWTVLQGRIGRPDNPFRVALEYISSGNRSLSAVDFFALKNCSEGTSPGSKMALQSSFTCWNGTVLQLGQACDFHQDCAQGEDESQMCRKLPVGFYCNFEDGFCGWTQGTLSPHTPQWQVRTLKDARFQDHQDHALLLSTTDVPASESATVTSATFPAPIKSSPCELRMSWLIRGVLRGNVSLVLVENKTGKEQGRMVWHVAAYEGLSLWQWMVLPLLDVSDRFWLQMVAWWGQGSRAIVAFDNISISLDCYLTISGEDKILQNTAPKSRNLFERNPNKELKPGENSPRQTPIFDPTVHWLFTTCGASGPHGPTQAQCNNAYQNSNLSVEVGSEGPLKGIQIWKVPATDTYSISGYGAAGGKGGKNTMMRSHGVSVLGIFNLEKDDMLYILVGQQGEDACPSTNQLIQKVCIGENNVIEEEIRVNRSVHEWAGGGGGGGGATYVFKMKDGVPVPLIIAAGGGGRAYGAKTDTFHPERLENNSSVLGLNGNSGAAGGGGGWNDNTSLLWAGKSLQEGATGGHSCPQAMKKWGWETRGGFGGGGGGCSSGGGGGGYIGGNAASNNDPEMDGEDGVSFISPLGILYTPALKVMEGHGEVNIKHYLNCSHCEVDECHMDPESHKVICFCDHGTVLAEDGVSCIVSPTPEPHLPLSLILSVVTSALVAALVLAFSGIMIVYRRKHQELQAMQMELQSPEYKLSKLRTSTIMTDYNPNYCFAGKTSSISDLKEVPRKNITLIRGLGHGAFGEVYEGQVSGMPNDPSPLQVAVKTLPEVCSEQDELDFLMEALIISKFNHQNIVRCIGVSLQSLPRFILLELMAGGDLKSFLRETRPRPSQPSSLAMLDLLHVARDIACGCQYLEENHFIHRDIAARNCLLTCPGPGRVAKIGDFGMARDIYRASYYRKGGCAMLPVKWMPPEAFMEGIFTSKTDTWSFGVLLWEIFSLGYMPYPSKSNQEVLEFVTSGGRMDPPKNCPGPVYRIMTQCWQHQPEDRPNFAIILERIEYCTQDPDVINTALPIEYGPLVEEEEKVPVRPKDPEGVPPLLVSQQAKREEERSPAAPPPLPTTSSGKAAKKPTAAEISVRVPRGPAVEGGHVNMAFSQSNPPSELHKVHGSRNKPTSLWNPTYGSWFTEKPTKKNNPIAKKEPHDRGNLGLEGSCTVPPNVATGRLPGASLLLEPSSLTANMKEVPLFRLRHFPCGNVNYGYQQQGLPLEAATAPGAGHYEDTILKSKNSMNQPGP
UniProt P10398: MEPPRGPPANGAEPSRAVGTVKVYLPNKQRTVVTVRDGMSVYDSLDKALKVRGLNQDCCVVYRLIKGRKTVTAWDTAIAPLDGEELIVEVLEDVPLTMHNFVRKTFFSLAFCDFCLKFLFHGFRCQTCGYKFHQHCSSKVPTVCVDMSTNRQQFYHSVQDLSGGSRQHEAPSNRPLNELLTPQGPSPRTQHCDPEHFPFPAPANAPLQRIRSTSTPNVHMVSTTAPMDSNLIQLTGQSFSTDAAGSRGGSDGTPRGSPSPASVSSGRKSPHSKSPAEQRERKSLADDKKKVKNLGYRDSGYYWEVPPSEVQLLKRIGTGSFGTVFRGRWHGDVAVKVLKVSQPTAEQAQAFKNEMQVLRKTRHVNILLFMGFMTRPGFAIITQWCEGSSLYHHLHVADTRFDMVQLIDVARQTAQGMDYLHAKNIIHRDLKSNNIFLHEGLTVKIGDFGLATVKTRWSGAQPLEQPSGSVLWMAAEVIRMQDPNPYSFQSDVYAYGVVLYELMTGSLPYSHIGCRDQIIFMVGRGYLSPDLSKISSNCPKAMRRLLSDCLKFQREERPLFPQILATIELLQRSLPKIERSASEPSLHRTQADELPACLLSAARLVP

Compound | number of time points
Cn1cnc2c(F)c(Nc3ccc(Br)cc3Cl)c(C(=O)NOCCO)cc21 [Selumetinib] (10 µM) | 0
C=C(CC[C@@H](C(=O)O)[C@H]1[C@H](O)C[C@@]2(C)C3=C(CC[C@]12C)[C@@]1(C)CC[C@H](OC(C)=O)C(C)(C)[C@@H]1CC3)C(C)C [Pachymic acid] (10 µM) | 0
Cc1[nH]c(/C=C2\C(=O)Nc3ccccc32)c(C)c1CCC(=O)O [Orantinib] (10 µM) | 0
C=CC(=O)Nc1ccc(CN2C(=O)N(c3cc(OC)cc(OC)c3)Cc3cnc(Nc4ccc(N5CCN(C)CC5)cc4)nc32)cc1 (2.5 µM) | 0

Target: ARAF (UniProt P10398)
Assay: as above
Details: K562; 2-18 h

Compound | number of time points
C[C@@H]1CCN(C(=O)CC#N)C[C@@H]1N(C)c1ncnc2[nH]ccc12 [Tofacitinib] (10 µM) | 0
CC#CC(=O)N1CC[C@@H](n2c(=O)n(-c3ccc(Oc4ccccc4)cc3)c3c(N)ncnc32)C1 [Tirabrutinib (hydrochloride)] (10 µM) | 0
Cc1ccc(C(=O)Nc2ccc(Oc3cc4cnn(C)c4cc3-c3cn[nH]c3)c(F)c2)c(=O)n1-c1ccc(F)cc1 [Merestinib] (2.5 µM) | 0
Cc1cc(Nc2ncnc3ccc(NC4=NC(C)(C)CO4)cc23)ccc1Oc1ccn2ncnc2c1 [Tucatinib (hemiethanolate)] (2.5 µM) | 0
C[C@@]1(c2ncncc2F)NC(=O)c2cc(-c3cn[nH]c3)ccc21 (10 µM) | 0
COc1cc(Nc2ncc(F)c(Nc3ccc4c(n3)NC(=O)C(C)(C)O4)n2)cc(OC)c1OC (10 µM) | 0
Cc1cc2ncc(-c3ccc(O)c(O)c3)nc2cc1C [Tyrphostin AG1433] (10 µM) | 0
C=CC(=O)Nc1cccc(Nc2nc(Nc3ccc(N4CCN(C(C)=O)CC4)cc3OC)ncc2C(F)(F)F)c1 [Rociletinib hydrobromide] (10 µM) | 0
Cc1cc(Nc2ncnc3ccc(NC4=NC(C)(C)CO4)cc23)ccc1Oc1ccn2ncnc2c1 [Tucatinib] (2.5 µM) | 0
CCc1cc2c(cc1N1CCC(N3CCOCC3)CC1)C(C)(C)c1[nH]c3cc(C#N)ccc3c1C2=O [Alectinib (Hydrochloride)] (2 µM) | 0
Cn1nccc1Nc1nccc(-c2ccn([C@H](CO)c3ccc(Cl)c(F)c3)c(=O)c2)n1 [Ravoxertinib hydrochloride] (10 µM) | 0
COc1cc2c(N3CCN(C(=O)Nc4ccc(OC(C)C)cc4)CC3)ncnc2cc1OCCCN1CCCCC1 [Tandutinib] (10 µM) | 0
CC#CC(=O)N1CC[C@@H](n2c(=O)n(-c3ccc(Oc4ccccc4)cc3)c3c(N)ncnc32)C1 [Tirabrutinib] (10 µM) | 0
C=CC(=O)Nc1cccc(Nc2nc(Nc3ccc(N4CCN(C(C)=O)CC4)cc3OC)ncc2C(F)(F)F)c1 [Rociletinib] (10 µM) | 0
COc1cc(Nc2ncc(F)c(Nc3ccc4c(n3)N(COP(=O)(O)O)C(=O)C(C)(C)O4)n2)cc(OC)c1OC [Fostamatinib Disodium] (10 µM) | 0
COc1cc2c(N3CCN(C(=O)Nc4ccc(OC(C)C)cc4)CC3)ncnc2cc1OCCCN1CCCCC1 [Tandutinib (hydrochloride)] (10 µM) | 0
COc1cc(Nc2ncc(F)c(Nc3ccc4c(n3)N(COP(=O)(O)O)C(=O)C(C)(C)O4)n2)cc(OC)c1OC [Fostamatinib (disodium hexahydrate)] (10 µM) | 0
COc1cc2nccc(Oc3ccc(NC(=O)NC4CC4)c(Cl)c3)c2cc1C(N)=O [Lenvatinib (mesylate)] (10 µM) | 0
Oc1ccc(Nc2nc(-c3ccc(Cl)cc3)cs2)cc1 (10 µM) | 0
NC(=O)c1nc(Nc2ccccc2)sc1NC(=O)C1CCCCC1 (10 µM) | 0
CC1=C(C(=O)O)N2C(=O)[C@@H](NC(=O)[C@H](N)C3=CCC=CC3)[C@H]2SC1 [Cephradine] (10 µM) | 0
Cc1ccc(C(=O)Nc2ccc(Oc3cc4cnn(C)c4cc3-c3cn[nH]c3)c(F)c2)c(=O)n1-c1ccc(F)cc1 [Merestinib dihydrochloride] (2.5 µM) | 0
Cc1ccc2nc(NCCN)c3ncc(C)n3c2c1 (2.5 µM) | 0
CC(=O)NC1CC(n2cnc(NC(=O)Cc3ccc4ccccc4c3)c2)C1 (stereo not drawn) (10 µM) | 0

In a second layout: results already given.
Compound	number of time points
C[C@@H]1CCN(C(=O)CC#N)C[C@@H]1N(C)c1ncnc2[nH]ccc12 [Tofacitinib] (10 µM)	0
CC#CC(=O)N1CC[C@@H](n2c(=O)n(-c3ccc(Oc4ccccc4)cc3)c3c(N)ncnc32)C1 [Tirabrutinib (hydrochloride)] (10 µM)	0

Source: the supplement of paper PMC12823440, “Inhibitors supercharge kinase turnover through native proteolytic circuits” (Nature, 2025)
